US20260209339A1 (RADIANT BIOTHERAPEUTICS, published 2026)
No constants are given. Whether binding was seen depends on the method and setting. Some binding calls cover weakened binding; strength is not graded here.

The chains behind the UniProt entries cited, without tags or fusion partners. Residues count along the entry.
UniProt P05231, residues 30-212: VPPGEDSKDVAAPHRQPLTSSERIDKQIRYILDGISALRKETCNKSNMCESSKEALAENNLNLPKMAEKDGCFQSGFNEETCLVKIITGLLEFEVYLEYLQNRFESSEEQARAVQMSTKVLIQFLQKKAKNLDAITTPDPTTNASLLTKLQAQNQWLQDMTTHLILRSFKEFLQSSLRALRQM

B1: clazakizumab IgG (antibody, V domains shown)
VH: EVQLVESGGGLVQPGGSLRLSCAASGFSLSNYYVTWVRQAPGKGLEWVGIIYGSDETAYATSAIGRFTISRDNSKNTLYLQMNSLRAEDTAVYYCARDDSSDWDAKFNLWGQGTLVTVSS
VL: AIQMTQSPSSLSASVGDRVTITCQASQSINNELSWYQQKPGKAPKLLIYRASTLASGVPSRFSGSGSGTDFTLTISSLQPDDFATYYCQQGYSLRNIDNAFGGGTKVEIKR
notes: Tested as parental IgG
B2: siltuximab immunoglobulin (IgG) (antibody, V domains shown)
VH: EVQLVESGGKLLKPGGSLKLSCAASGFTFSSFAMSWFRQSPEKRLEWVAEISSGGSYTYYPDTVTGRFTISRDNAKNTLYLEMSSLRSEDTAMYYCARGLWGYYALDYWGQGTSVTVSS
VL: QIVLIQSPAIMSASPGEKVTMTCSASSSVSYMYWYQQKPGSSPRLLIYDTSNLASGVPVRFSGSGSGTSYSLTISRMEAEDAATYYCQQWSGYPYTFGGGTKLEIKR
notes: Tested as parental IgG; also called siltuximab IgG; CNTO-328
B3: olokizumab IgG (antibody, V domains shown)
VH: EVQLVESGGGLVQPGGSLRLSCAASGFNFNDYFMNWVRQAPGKGLEWVAQMRNKNYQYGTYYAESLEGRFTISRDDSKNSLYLQMNSLKTEDTAVYYCARESYYGFTSYWGQGTLVTVSS
VL: DIQMTQSPSSLSASVGDRVTITCQASQDIGISLSWYQQKPGKAPKLLIYNANNLADGVPSRFSGSGSGTDFTLTISSLQPEDFATYYCLQHNSAPYTFGQGTKLEIKR
notes: Tested as parental IgG; also called CDP6038

target: interleukin-6 (IL-6) (UniProt P05231); assay: ELISA

binding, binds:
B1, B2, B3
